The text below walks through data of patent US20140303105A1, “Primycin and components thereof for use in the treatment or prevention of infections caused by specific pathogens” (PANNONPHARMA GYÓGYSZERGYÁRTÓ ZRT., priority 2011, published 2014).

Structures are written as SMILES. In brackets after ≈: the same amount, converted by molar mass. Where only a bound is given, the exact number is not on record here.

One experiment concerns E. faecium. The experiment in a line: Microdilution MIC, Enterococcus isolates with van resistance genes. It counts as cell-based. The method, then: (§1) Identification and characterization of resistance patterns of these bacteria were performed by standard methods.
(§2) When forming the test groups we attached great importance to the increasing incidence of drug-resistant microbes causing therapeutic problems. Most important of them are methicillin-resistant Staphylococcus aureus (MRSA), methicillin-resistant coagulase-negative Staphylococcus spp. (MRCoNS), penicillin-resistant Streptococcus pneumoniae (pneumococcus), vancomycin-resistant Enterococcus spp. (VRE). Pneumococcus isolates represented various serotypes, VRE isolates belonged to various species. Moreover, vancomycin-resistance of VRE isolates was based on different genetic backgrounds. Antibiotic-resistant strains were also represented among international reference strains, for example methicillin-resistant Staphylococcus aureus ATCC 43300 (MRSA), Staphylococcus aureus with decreased vancomycin susceptibility ATCC 700698 and 700699 (vancomycin intermediate Staphylococcus aureus—VISA), mupirocin-resistant Staphylococcus aureus ATCC BAA1708 and vancomycin-resistant Enterococcus faecalis ATCC 51299 (VRE).
(§3) Susceptibility tests were performed according to the standard microdilution method (NCCLS (CLSI) M7-A7).
(§4) The lowest concentration at which no bacterial growth was observed after the incubation period is the Minimal Inhibitory Concentration (MIC). The MIC value is inversely proportional to the antimicrobial efficacy. MIC values of antimicrobial agents can differ by species or even by bacterial strains within species.

For another experiment, the system named is E. faecalis. Described as above. Format: cell-based. As to the method:
as §1, §2, §3, §4

For `CN[C@H](CC(C)C)C(=O)N[C@H]1C(=O)N[C@@H](CC(N)=O)C(=O)N[C@H]2C(=O)N[C@H]3C(=O)N[C@H](C(=O)N[C@H](C(=O)O)c4cc(O)cc(O)c4-c4cc3ccc4O)[C@H](O)c3ccc(c(Cl)c3)Oc3cc2cc(c3O[C@@H]2O[C@H](CO)[C@@H](O)[C@H](O)[C@H]2O[C@H]2C[C@](C)(N)[C@H](O)[C@H](C)O2)Oc2ccc(cc2Cl)[C@H]1O` [Vancomycin], the MIC (as a rule, the lowest concentration that inhibits growth of the organism) with E. faecium was greater than 32 µg/mL; against E. faecalis (resistance gene van A), greater than 32 µg/mL; with E. faecalis (resistance gene van C1) it was 8 µg/mL (≈ 5.52 µM).
